The record followed here is article doi:10.1101/2021.03.11.435010 (bioRxiv, 2021).

No constants are given. Whether binding was seen depends on the method and setting. Binding can be weak; no strength is given.

The target in the test is RPB4 (Sus scrofa domesticus). Description: cryo-EM structure.

B1: MED22 (protein, UniProt Q15528 1-200)
chain: MAQQRALPQSKETLLQSYNKRLKDDIKSIMDNFTEIIKTAKIEDETQVSRATQGEQDNYEMHVRAANIVRAGESLMKLVSDLKQFLILNDFPSVNEAIDQRNQQLRTLQEECDRKLITLRDEISIDLYELEEEYYSSSSSLCEANDLPLCEAYGRLDLDTDSADGLSAPLLASPEPSAGPLQVAAPAHSHAGGPGPTEHA
With B1, the binding entry is reported as “binds”.
